# Paper PMC12040169 (PLOS Biology, 2025)
# This is one part of the list.
# Tested on: T1, CTL2-GFP (C. trachomatis L2/434/Bu, GFP-expressing)
# T1 construct: L2/434/Bu, GFP-expressing
# Parameters: species or system HeLa; Intracellular C. trachomatis growth in HeLa cells, bulk GFP fluorescence relative to DMSO
# Details: bulk GFP, single well; 28.5 h, 10 µM; inhibitor
row,SMILES,% of control remaining [%]
1,COc1cncc(-c2ccc(N3CCN(c4ccccc4C#N)CC3)nc2)c1 [CBK037738],140.383
2,SC1=NC2(CCCC2)NN1c1ccc(Cl)cc1 [CBK288391],169.85
3,Cc1cc(OCCCC(=O)Nc2cccc([N+](=O)[O-])c2)cc(C)c1Cl [CBK267978],121.455
4,NS(=O)(=O)c1ccc(NC2=NC(=O)C(CC(=O)Nc3ccc(Br)cc3)S2)cc1 (stereo not shown) [CBK266616],104.852
5,O=c1nc(NS(=O)(=O)c2ccc(Oc3ccccc3)cc2)c(F)c[nH]1 [CBK067571],123.995
6,CC(C)OC(=O)C(NC(=O)OC(C)(C)C)c1ccccc1 (stereo not shown) [CBK170399],99.2269
7,CCN(CC)C(=O)c1ccsc1NS(=O)(=O)c1cc(Br)ccc1OC [CBK042327],123.326
8,Cc1cc(C)n(C(C)C(=O)N(C)CCn2ccnc2C)n1 (stereo not shown) [CBK281759],151.48
9,O=C(NCC(c1ccccc1)c1ccccc1)N1CCN(c2ccccc2)CC1 [CBK155197],108.318
10,CCc1nc2ccc(C(=O)NCCNC(C)=O)cn2c1N(C)Cc1ccc(NC(C)=O)cc1 [CBK145612],100
11,CC(=O)N/C(=C/c1ccc([N+](=O)[O-])cc1)C(=O)Nc1cccc(C(=O)O)c1 [CBK264495],105.547
12,COc1ccc(-c2n[nH]cc2/C=N/NC(=O)c2cc(Br)ccc2O)c(OC)c1 [CBK262067],111.673
13,CN(c1ncccc1C#N)C1CCN(CCC(N)=O)CC1 [CBK016793],149.885
14,Nn1cnn2c(SCC(=O)c3cccs3)nnc12 [CBK263184],108.391
15,Cc1cc(C)c2c(NCc3ccc(C)o3)n[nH]c2n1 [CBK284621],93.5843
16,COc1c(C)cc(Br)cc1C(=O)Nc1ccccc1-c1nc2ccccc2s1 [CBK267155],156.825
17,CCOc1cccc(C(=O)NN2CCN(C)CC2)c1 [CBK268184],125.466
18,Cc1ccc(S(=O)(=O)NC(=O)c2cc(C)n(-c3ccc(N(C)C)cc3)c2C)cc1 [CBK296085],101.27
19,C#CCOc1cncc(Cl)n1 [CBK113370],123.661
20,COc1cc(NC(=O)c2c(C)[nH]c(=O)[nH]c2=S)cc(C(F)(F)F)c1 [CBK115495],117.125
21,Cc1ccc(-c2ccccc2CC2(C(=O)Nc3cccc(C(N)=O)c3)CCOCC2)c(C)c1 [CBK286423],118.134
22,CN(CCN1CCCCC1)C(=O)C1CC(=O)Nc2ccccc21 (stereo not shown) [CBK282729],127.989

# Some of these compounds in order of number of heavy atoms, falling:
row,SMILES,% of control remaining [%]
12,COc1ccc(-c2n[nH]cc2/C=N/NC(=O)c2cc(Br)ccc2O)c(OC)c1 [CBK262067],111.673
3,Cc1cc(OCCCC(=O)Nc2cccc([N+](=O)[O-])c2)cc(C)c1Cl [CBK267978],121.455
17,CCOc1cccc(C(=O)NN2CCN(C)CC2)c1 [CBK268184],125.466
